# Experimental data taken from publication PMC11087087.
# Amino acid sequences for entries named in this document (tags omitted).
# UniProt P31749: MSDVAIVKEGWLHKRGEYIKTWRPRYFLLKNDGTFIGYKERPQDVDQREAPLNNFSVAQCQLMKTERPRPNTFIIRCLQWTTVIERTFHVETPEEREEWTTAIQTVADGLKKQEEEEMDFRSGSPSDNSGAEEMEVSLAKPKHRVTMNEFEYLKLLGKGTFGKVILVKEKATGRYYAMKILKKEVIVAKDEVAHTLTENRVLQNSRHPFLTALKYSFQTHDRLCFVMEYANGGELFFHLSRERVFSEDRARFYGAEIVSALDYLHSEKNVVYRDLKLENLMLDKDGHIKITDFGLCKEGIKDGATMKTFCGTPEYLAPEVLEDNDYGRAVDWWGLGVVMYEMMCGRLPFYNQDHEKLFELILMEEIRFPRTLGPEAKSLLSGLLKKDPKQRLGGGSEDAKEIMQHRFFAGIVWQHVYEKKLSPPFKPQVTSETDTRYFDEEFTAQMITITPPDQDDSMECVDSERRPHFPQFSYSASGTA
# Results are given in words; binding and its absence hold for the method and conditions named. In cells and extracts the contact can be indirect. Some results given as binding are weak or reduced against the parent protein; the word gives no strength. Tags and fused reporters may be left off the sequences shown.
# Target: T1, Flag-tagged PDZK1 (UniProt Q5T2W1)
# T1 sequence: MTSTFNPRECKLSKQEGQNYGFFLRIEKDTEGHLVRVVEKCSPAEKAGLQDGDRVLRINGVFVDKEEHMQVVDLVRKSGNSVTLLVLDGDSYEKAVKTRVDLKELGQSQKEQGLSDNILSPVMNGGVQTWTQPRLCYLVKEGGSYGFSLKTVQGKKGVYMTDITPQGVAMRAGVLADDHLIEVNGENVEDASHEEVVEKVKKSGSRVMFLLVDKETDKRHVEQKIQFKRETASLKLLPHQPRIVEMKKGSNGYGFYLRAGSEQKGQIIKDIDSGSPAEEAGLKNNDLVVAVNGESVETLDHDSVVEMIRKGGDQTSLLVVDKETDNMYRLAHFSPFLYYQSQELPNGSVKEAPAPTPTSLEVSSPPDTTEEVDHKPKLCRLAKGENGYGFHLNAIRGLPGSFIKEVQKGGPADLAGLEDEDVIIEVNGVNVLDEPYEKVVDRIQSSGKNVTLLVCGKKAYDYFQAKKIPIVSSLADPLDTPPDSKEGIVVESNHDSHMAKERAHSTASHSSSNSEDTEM
# Assay: co-IP; U251 cells transfected with Flag-PDZK1; endogenous AKT1 detected in the co-immunoprecipitate; protocol as in ref. 19
substance,measurement,value
endogenous AKT1 (from UniProt P31749 1-480),binding,binds
